Assay: ASTM-D3519 blender foam test (foam suppression)
Details: for Foam Height, Initial: 25° C., blender 30 seconds
[1] = Table 4, 0.2 wt. % compound as 50 wt. % solution in 2-Ethylhexanol
[2] = Table 1, 0.2 wt. % compound added as 50 wt. % solution in 2-ethylhexanol
[3] = Table 1, 0.2 wt. % compound as 50 wt. % solution in 2-ethylhexanol

| Substance | Foam Height, 5 min (Table 4, 0.2 wt. %) [cm] | Foam Height, 10 min (Table 4, 0.2 wt. %) [cm] | Foam Height, Initial [1] [cm] | minutes to no foam (Table 4, 0.2 wt. %) | Foam Height, Initial [2] [cm] | minutes to no foam [3] | Foam Height, 5 min [3] [cm] | Foam Height, 10 min [3] [cm] |
| --- | --- | --- | --- | --- | --- | --- | --- | --- |
| 4:1/Epoxyoctane/Polyoxypropylene Diamine Adduct [Example 9] | 1.1 | 0.2 | 2.8 |  |  |  |  |  |
| 2:1/Epoxydecane/Polyoxypropylene Diamine Adduct [Example 10] | 0.6 |  | 2.0 | 8 minutes to no foam |  |  |  |  |
| 2:1/2-Ethylhexyl glycidyl ether/Polyoxypropylene Diamine Adduct [Example 12] | 0.6 |  | 2.4 | 10 minutes to no foam |  |  |  |  |
| 2:1/Epoxydodecane/Polyoxypropylene Diamine Adduct [Example 11] | 0.4 |  | 1.9 | 7 minutes to no foam |  |  |  |  |
| 2:1/Epoxyoctane/Polyoxypropylene Diamine Adduct [Example 8] |  |  | 1.4 | 5 minutes to no foam |  |  |  |  |
| diethylenetriamine/2 mol 1-epoxyoctane adduct [Example 2] |  |  |  |  | 1.4 | 3 minutes to no foam |  |  |
| The 2:1 2-ethylhexyl glycidyl ether adduct of diethylenetriamine [Comparative Example 1, reference compound] |  |  |  |  | 2.0 | 8 minutes to no foam | 0.3 |  |
| The 2:1 isobutyl glycidyl ether adduct of diethylenetriamine [Comparative Example 2, reference compound] |  |  |  |  | 2.2 | 13 minutes to no foam | 0.9 | 0.4 |
| 2:1 Epoxyhexane/Polyoxypropylene Diamine Adduct [Example 7] | 0.5 |  | 2.5 | 7 minutes to no foam |  |  |  |  |
